We go through 38 targets from the supplement of paper PMC12067093, “Discovery and optimisation of a covalent ligand for TRIM25 and its application to targeted protein ubiquitination” (Chemical Science, 2025).

Chains of the proteins cited; added tags and fusions are not shown. Lines headed by an entry give the natural chain unless they say otherwise; changes in a name come on top.
UniProt Q9H4P4: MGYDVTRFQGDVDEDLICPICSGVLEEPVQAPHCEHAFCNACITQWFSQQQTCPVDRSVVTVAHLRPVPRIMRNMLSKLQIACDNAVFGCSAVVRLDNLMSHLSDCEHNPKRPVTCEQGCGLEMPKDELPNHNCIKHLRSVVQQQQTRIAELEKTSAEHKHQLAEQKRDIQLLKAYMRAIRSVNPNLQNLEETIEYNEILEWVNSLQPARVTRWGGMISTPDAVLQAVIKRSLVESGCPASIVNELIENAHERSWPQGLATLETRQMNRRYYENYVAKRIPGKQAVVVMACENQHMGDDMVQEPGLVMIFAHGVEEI
UniProt Q5VT52: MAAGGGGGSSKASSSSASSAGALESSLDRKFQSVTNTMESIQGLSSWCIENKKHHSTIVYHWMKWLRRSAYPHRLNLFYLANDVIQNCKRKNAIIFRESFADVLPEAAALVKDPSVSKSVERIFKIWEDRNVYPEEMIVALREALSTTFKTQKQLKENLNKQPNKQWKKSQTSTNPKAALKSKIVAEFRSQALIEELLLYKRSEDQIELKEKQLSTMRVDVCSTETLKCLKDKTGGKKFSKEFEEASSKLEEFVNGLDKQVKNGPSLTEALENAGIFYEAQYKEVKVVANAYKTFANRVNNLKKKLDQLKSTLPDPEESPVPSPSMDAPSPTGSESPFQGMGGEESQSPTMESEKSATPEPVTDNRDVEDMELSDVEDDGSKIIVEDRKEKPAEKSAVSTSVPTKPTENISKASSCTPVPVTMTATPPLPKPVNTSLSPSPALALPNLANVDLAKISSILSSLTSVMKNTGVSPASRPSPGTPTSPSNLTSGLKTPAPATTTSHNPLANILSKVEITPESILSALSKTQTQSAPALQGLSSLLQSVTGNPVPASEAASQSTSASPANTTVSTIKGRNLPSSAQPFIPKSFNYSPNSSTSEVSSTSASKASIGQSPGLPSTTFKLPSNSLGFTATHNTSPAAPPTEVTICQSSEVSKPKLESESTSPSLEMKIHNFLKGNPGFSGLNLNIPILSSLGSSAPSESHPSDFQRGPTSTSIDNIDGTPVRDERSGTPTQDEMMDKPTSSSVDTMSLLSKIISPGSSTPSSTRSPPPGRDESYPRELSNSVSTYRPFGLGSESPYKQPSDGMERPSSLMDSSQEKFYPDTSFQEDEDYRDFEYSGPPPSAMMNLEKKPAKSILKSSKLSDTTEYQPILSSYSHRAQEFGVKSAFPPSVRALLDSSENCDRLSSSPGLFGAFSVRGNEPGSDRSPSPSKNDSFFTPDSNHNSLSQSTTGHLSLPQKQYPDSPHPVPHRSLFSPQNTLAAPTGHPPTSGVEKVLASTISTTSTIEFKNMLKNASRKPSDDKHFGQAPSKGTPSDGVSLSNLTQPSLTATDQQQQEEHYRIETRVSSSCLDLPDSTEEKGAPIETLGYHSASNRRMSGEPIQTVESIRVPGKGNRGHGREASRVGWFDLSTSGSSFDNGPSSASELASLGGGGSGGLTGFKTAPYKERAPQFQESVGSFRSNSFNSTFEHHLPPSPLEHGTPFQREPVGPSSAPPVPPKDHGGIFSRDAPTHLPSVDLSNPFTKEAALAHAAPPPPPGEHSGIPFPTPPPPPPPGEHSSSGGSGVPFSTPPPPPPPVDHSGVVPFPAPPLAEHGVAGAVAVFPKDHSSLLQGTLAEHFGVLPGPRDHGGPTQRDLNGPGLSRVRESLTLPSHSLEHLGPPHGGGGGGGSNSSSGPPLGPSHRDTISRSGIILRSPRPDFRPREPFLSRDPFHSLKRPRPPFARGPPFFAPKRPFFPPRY
UniProt Q5VTR2, whole entry, looked up: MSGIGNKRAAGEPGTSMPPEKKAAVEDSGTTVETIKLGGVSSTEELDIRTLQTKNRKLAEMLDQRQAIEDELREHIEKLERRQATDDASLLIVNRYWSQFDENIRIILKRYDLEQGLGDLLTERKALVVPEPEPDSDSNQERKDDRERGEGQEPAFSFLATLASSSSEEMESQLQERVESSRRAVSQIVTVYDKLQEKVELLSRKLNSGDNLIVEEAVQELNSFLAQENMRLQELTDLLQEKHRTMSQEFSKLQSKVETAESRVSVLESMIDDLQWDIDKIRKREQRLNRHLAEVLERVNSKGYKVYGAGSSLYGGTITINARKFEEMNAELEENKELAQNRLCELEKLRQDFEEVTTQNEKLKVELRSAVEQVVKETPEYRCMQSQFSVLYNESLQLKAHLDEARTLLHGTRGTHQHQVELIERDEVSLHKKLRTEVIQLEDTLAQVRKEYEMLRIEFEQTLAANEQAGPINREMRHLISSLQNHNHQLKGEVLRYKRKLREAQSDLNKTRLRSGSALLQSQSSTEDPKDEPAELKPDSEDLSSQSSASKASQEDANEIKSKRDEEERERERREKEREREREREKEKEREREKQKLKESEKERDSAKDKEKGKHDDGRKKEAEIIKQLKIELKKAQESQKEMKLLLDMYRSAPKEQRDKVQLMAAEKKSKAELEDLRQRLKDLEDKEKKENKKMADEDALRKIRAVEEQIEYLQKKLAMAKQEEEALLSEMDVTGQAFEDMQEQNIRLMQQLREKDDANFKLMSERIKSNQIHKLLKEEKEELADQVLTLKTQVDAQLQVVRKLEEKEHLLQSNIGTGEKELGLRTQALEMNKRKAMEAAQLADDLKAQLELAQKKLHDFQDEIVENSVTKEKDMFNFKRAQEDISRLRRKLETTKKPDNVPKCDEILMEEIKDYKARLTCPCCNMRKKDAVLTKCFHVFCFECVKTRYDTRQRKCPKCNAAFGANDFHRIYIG
UniProt P13489: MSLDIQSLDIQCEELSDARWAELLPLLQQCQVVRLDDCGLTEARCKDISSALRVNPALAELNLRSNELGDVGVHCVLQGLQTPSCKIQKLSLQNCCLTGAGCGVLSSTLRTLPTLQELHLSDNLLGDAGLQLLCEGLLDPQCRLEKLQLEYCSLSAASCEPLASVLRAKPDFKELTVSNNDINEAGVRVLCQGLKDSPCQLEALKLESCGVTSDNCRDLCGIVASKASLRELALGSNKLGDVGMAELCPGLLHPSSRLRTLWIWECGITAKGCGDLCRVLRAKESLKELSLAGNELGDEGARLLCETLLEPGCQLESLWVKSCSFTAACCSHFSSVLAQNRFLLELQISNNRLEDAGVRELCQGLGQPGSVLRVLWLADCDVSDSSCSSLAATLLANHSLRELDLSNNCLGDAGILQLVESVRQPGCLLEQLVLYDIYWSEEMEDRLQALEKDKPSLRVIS
UniProt Q96EP0: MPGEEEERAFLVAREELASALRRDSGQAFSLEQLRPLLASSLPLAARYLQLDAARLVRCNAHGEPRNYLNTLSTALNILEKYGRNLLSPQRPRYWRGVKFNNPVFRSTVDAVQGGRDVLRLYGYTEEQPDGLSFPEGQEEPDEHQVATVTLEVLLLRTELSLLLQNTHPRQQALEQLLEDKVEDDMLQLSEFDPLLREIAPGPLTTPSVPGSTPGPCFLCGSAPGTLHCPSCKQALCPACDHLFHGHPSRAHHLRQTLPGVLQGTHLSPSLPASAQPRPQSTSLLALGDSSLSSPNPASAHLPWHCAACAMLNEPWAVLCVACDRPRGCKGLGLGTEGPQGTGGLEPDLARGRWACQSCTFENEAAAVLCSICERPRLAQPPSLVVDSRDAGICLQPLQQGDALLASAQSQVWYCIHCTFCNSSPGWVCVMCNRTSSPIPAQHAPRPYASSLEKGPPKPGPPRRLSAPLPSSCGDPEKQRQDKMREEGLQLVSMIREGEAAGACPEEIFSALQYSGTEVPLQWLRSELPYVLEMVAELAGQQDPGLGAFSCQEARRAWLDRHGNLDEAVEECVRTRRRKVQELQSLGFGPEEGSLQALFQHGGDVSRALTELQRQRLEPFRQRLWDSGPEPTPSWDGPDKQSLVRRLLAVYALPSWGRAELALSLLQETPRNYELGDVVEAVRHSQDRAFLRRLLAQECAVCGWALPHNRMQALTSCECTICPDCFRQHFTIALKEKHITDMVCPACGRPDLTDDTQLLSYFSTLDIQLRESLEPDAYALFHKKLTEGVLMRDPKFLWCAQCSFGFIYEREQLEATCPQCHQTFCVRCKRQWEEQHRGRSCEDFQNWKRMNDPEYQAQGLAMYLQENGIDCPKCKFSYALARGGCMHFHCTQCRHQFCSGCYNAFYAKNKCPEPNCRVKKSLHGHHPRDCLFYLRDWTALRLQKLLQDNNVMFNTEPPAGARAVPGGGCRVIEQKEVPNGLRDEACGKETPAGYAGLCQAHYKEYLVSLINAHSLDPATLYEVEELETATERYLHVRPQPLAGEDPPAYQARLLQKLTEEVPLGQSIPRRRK
UniProt O75116: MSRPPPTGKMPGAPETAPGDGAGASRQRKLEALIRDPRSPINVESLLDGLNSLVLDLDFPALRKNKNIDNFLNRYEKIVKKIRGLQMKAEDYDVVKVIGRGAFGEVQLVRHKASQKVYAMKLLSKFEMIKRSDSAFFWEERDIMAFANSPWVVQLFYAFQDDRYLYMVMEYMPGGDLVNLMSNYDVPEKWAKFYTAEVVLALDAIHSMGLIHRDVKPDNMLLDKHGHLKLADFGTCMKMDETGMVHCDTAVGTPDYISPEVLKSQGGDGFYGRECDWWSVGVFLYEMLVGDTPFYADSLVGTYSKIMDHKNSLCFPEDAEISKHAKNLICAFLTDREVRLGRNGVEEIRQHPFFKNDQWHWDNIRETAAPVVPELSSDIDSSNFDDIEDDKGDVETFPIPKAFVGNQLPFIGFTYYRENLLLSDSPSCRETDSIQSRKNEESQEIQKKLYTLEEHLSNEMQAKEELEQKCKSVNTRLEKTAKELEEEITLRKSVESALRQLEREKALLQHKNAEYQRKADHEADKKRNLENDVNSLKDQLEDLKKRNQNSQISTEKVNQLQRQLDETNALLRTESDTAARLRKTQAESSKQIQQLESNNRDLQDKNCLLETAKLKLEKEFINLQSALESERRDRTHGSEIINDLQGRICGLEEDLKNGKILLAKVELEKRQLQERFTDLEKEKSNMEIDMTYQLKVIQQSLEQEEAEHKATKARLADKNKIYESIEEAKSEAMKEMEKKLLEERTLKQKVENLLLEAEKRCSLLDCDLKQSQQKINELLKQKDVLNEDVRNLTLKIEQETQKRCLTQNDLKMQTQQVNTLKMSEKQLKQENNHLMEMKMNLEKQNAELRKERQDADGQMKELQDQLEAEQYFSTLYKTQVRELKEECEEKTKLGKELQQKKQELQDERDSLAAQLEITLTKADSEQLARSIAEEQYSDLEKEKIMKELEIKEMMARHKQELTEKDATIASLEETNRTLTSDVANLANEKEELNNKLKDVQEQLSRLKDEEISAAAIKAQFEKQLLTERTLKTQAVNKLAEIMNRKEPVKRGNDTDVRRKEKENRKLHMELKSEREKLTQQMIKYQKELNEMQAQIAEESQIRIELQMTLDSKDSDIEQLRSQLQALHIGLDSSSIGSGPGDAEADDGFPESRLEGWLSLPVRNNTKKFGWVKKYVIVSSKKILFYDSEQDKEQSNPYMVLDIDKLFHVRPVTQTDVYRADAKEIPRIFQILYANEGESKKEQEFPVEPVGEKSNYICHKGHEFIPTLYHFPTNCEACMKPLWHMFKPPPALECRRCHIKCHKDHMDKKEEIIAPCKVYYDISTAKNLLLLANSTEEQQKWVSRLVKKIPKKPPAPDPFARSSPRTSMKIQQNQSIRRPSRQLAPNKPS
UniProt Q5M7Z0: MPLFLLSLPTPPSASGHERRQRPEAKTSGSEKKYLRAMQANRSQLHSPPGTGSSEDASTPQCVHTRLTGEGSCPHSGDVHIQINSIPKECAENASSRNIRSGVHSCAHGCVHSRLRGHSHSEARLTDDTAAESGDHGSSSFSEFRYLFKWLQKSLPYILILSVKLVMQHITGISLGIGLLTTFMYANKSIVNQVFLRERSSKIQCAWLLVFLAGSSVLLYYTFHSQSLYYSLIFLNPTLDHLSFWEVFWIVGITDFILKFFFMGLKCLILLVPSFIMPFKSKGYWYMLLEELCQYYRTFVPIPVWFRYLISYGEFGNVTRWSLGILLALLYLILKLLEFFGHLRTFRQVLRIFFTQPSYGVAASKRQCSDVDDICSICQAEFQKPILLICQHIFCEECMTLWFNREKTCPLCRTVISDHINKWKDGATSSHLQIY
UniProt Q9H7B2: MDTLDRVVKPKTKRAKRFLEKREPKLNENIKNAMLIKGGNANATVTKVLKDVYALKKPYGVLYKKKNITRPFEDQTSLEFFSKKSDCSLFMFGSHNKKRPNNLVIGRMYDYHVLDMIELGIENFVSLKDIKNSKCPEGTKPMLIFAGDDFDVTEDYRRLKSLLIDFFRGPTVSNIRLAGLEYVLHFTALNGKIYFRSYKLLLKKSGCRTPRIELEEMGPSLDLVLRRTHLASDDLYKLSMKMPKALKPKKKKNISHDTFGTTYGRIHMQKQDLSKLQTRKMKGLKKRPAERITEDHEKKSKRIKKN

The other results are listed elsewhere or left out.
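Also: competitive profiling in live THP-1 cells: cysteine peptides tagged with an iodoacetamide desthiobiotin (IA-DTB) probe, intensity after compound treatment relative to DMSO-treated cells.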

Compound in the assay: Cc1cc(ccc1-c1ccccc1)C(=O)N1CCCN(CC1)C(=O)CCl [compound 10]
The assay is described as follows: probe-labelled cysteine peptide fold change vs DMSO (competition) (log2 fold change); higher = less target engagement (more negative = stronger competition). Conditions: 50 µM; THP-1; incubation time: 4 h.
For the target “RPL12_P30050_17_CTGGEVGATSALAPK (UniProt P30050)”, the “probe-labelled cysteine peptide fold change” value amounted to 0.0114.

In the case of “RNF41_Q9H4P4_238_SLVESGCPASIVNELIENAHER (UniProt Q9H4P4)”, the “probe-labelled cysteine peptide fold change” value came out at 0.0571. Consider “RPRD2_Q5VT52_88_LNLFYLANDVIQNCK (UniProt Q5VT52)”, for which the “probe-labelled cysteine peptide fold change” value was determined as 0.293.

“RPAP3_Q9H6T3_190_FAVAESDCNLAVALNR (UniProt Q9H6T3)”: the “probe-labelled cysteine peptide fold change” value worked out at 0.128. Turning to “RNF20_Q5VTR2_960_CNAAFGANDFHR (UniProt Q5VTR2)”, the “probe-labelled cysteine peptide fold change” value is 0.358. In the case of “RNPEP_Q9H4A4_254_VWAEPCLIDAAK (UniProt Q9H4A4)”, the “probe-labelled cysteine peptide fold change” value worked out at 0.471. The same measure for “RNF213_Q63HN8_700_TYTWLGALPVLHCCMELAPR (UniProt Q63HN8)”: -0.538; for “RNH1_P13489_75+85_SNELGDVGVHCVLQGLQTPSCKIQK (UniProt P13489)”: -0.0667; for “RNH1_P13489_152+159_LQLEYCSLSAASCEPLASVLR (UniProt P13489)”: -0.309. On to “RNH1_P13489_216_LESCGVTSDNCR (UniProt P13489)”, for which the “probe-labelled cysteine peptide fold change” value was -0.00068. As for “RPL34_P49207_46_SACGVCPGR (UniProt P49207)”, the figure is -0.837; as for “RNPEP_Q9H4A4_130_ERPGSEEPPAEPVSFYTQPFSHYGQALCVSFPQPCR (UniProt Q9H4A4)”, -0.077; as for “RNH1_P13489_273+277_GCGDLCR (UniProt P13489)”, -0.472. As for “RNF31_Q96EP0_817_EQLEATCPQCHQTFCVR (UniProt Q96EP0)”, the “probe-labelled cysteine peptide fold change” value was found to be 0.179. On to “RNF31_Q96EP0_572_HGNLDEAVEECVR (UniProt Q96EP0)”, for which the “probe-labelled cysteine peptide fold change” value is -0.134.

For “RNF213_Q63HN8_418_WDSNICELHYTR (UniProt Q63HN8)”, the “probe-labelled cysteine peptide fold change” value worked out at 0.0152. Turning to “RNH1_P13489_75+85_SNELGDVGVHCVLQGLQTPSCK (UniProt P13489)”, the “probe-labelled cysteine peptide fold change” value is -0.306.

As for “RPL11_P62913_21+25_LCLNICVGESGDR (UniProt P62913)”, the “probe-labelled cysteine peptide fold change” value is -0.0902. As to “RNF213_Q63HN8_2809_QVHLVSFQCSPHSTPQGIISTFR (UniProt Q63HN8)”, the “probe-labelled cysteine peptide fold change” value was 0.315. As to “RPA1_P27694_323_DSLVDIIGICK (UniProt P27694)”, the “probe-labelled cysteine peptide fold change” value was determined as 0.183. As for “RPLP0_P05388_27_CFIVGADNVGSK (UniProt P05388)”, the figure is 0.0907. Turning to “ROCK2_O75116_1277_GHEFIPTLYHFPTNCEACMK (UniProt O75116)”, the “probe-labelled cysteine peptide fold change” value came out at 0.0283. As for “RPL24_P83731_6_MKVELCSFSGYK (UniProt P83731)”, the “probe-labelled cysteine peptide fold change” value is -0.696.

Turning to “RNF214_Q8ND24_23_AASEVAGVVANAPSPPESSSLCASK (UniProt Q8ND24)”, the “probe-labelled cysteine peptide fold change” value was -0.533. For “RNF220_Q5VTB9-3_115_HVEHCLSK (UniProt Q5VTB9)”, the “probe-labelled cysteine peptide fold change” value was -0.261. In the case of “RNFT1_Q5M7Z0_106_SGVHSCAHGCVHSR (UniProt Q5M7Z0)”, the “probe-labelled cysteine peptide fold change” value turned out to be 0.197. For the target “RNF213_Q63HN8_3084_DQEYTQLCR (UniProt Q63HN8)”, the “probe-labelled cysteine peptide fold change” value was -0.0867. Consider “RPP25_Q9BUL9_70_AIVFSGCGR (UniProt Q9BUL9)”, for which the “probe-labelled cysteine peptide fold change” value was -0.143. The same measure for “RNH1_P13489_199_DSPCQLEALKLESCGVTSDNCR (UniProt P13489)”: -1.17.

Turning to “RNH1_P13489_96_LSLQNCCLTGAGCGVLSSTLR (UniProt P13489)”, the “probe-labelled cysteine peptide fold change” value was -0.265. In the case of “ROCK1_Q13464_1070_ELNDMQAQLVEECAHR (UniProt Q13464)”, the “probe-labelled cysteine peptide fold change” value is -0.262. As for “RNH1_P13489_209_LESCGVTSDNCR (UniProt P13489)”, the “probe-labelled cysteine peptide fold change” value was -0.206. Turning to “ROCK2_O75116_1315_KEEIIAPCK (UniProt O75116)”, the “probe-labelled cysteine peptide fold change” value was 0.0953. Regarding “RPF2_Q9H7B2_87_KSDCSLFMFGSHNK (UniProt Q9H7B2)”, the “probe-labelled cysteine peptide fold change” value was 0.0264. “RPL7A_P62424_199_TCTTVAFTQVNSEDK (UniProt P62424)”: the “probe-labelled cysteine peptide fold change” value was found to be 0.169. In the case of “RPRD2_Q5VT52_903_ALLDSSENCDR (UniProt Q5VT52)”, the “probe-labelled cysteine peptide fold change” value was -0.249. In the case of “RPL17_P18621_144_INPYMSSPCHIEMILTEK (UniProt P18621)”, the “probe-labelled cysteine peptide fold change” value was -0.393. “RPL10_P27635_49_AKVDEFPLCGHMVSDEYEQLSSEALEAAR (UniProt P27635)”: the “probe-labelled cysteine peptide fold change” value is -0.281.
